Experimental data: PubChem BioAssay AID1159584 (Peter MacCallum Cancer Centre, 2016)

Aim: 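Genes whose loss is lethal only together with E-cadherin loss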 (primary screen)
Cell system: human MCF10A breast epithelial cells, parental and CDH1-null
Reagents: siRNA against human genes
Measurement: 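ATP luminescence (CellTiter-Glo) viability per line relative to mean mock wells over all plates, and the ratio of CDH1-null to parental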
Scale: CDH1-null / parental viability ratio: higher = CDH1-null cells survive relatively better than parental; CDH1-null viability vs mock: higher = more viable CDH1-null cells; parental viability vs mock: higher = more viable parental cells
In all, the deposit lists about 18,000 reagents; below is an unselected part. No sequences are given here. Not given: the amount of reagent, the time to read-out.

gene symbol,CDH1-null / parental viability ratio,CDH1-null viability vs mock (fraction of mock),parental viability vs mock (fraction of mock)
SEC61A2,1.04,0.48,0.46
ZNF623,1.16,0.86,0.74
METTL16,0.97,0.96,0.99
IFT172,0.84,0.62,0.74
AQP3,0.91,0.82,0.9
PIPOX,0.96,0.5,0.52
CSNK1G3,0.98,0.97,0.99
VPS26A,1.29,0.98,0.76
IMMP1L,1,0.92,0.92
WDR25,0.89,0.64,0.72
WHR1,0.75,0.78,1.04
CARHSP1,1.21,0.7,0.58
PID1,1.01,0.81,0.8
POU3F1,1.08,0.52,0.48
PRKX,0.77,0.56,0.73
GEMIN4,1.07,0.49,0.46
PRSS27,1.13,0.86,0.76
SMYD5,1.04,1.12,1.08
AKR1C4,1.07,1.03,0.96
RARA,0.92,0.73,0.79
ANP32A,0.91,0.86,0.94
NCEH1,1,0.9,0.9
SLC48A1,1.53,0.66,0.43
GTF2H3,1.06,1.09,1.03
RGP1,1.04,0.52,0.5
COASY,0.98,0.88,0.9
SLC35H1,0.77,0.62,0.8
FGL2,0.99,1.07,1.08
NAE1,0.89,0.68,0.76
ABCA12,0.84,0.74,0.88
FGGY,0.93,0.98,1.05
SESN2,1.07,0.92,0.86

Looked up above.
GEMIN4, CDH1-null viability vs mock (fraction of mock) = 0.49
Value of VPS26A under “CDH1-null / parental viability ratio”: 1.29
Result for PID1 under “CDH1-null / parental viability ratio”: 1.01
Under “CDH1-null viability vs mock (fraction of mock)”, RGP1 is entered as 0.52
IMMP1L, parental viability vs mock (fraction of mock): 0.92
SEC61A2, CDH1-null viability vs mock (fraction of mock) = 0.48

Further records follow:
gene symbol,CDH1-null / parental viability ratio,CDH1-null viability vs mock (fraction of mock),parental viability vs mock (fraction of mock)
ALPK2,0.84,0.94,1.12
NKD1,0.95,0.55,0.58
DIP2A,1.26,1.1,0.87
ST13,0.94,1.03,1.1
RASEF,0.96,0.75,0.78
APAF1,1.76,0.86,0.49
LETMD1,0.97,0.76,0.78
EIF4E3,0.76,0.72,0.95
ANGPT1,0.96,0.54,0.56
C3orf36,1.12,0.96,0.86
IL20RB,0.76,0.62,0.82
S100A4,0.81,0.42,0.52
ZFP42,0.89,0.86,0.97
ADGRE3,1.33,0.88,0.66
PHYH,1.04,1.08,1.04
ZNF346,1.08,1.18,1.09
DPCD,1.2,0.96,0.8
HMBOX1,0.87,0.7,0.8
ASCC1,0.94,1.19,1.26
STUM,0.83,0.7,0.84
PDZRN3,0.99,0.93,0.94
PYGO2,1.44,0.72,0.5
GNAT1,0.62,0.59,0.95
LINC02913,1.08,0.7,0.65
CPA1,1.32,0.87,0.66
IRF2BPL,0.84,0.74,0.88
TXNDC17,1.07,0.94,0.88
CRYBA1,1.15,1.06,0.92
B3GALNT1,0.92,0.92,1
NTF3,0.85,0.66,0.78
FUT7,0.98,0.92,0.94
TBC1D26,1.28,0.64,0.5
MYH11,1.2,0.79,0.66
RDH12,0.8,0.72,0.9
HECTD4,1.12,0.99,0.88
PTX3,1.15,1.08,0.94
